For at least one entry, the source does not settle the construct or the ends of the probe. At least one result comes from cells or an extract, where the contact may be indirect.

The chains behind the UniProt entries cited, without tags or fusion partners. Residues count along the entry.
UniProt P56817, 46-501: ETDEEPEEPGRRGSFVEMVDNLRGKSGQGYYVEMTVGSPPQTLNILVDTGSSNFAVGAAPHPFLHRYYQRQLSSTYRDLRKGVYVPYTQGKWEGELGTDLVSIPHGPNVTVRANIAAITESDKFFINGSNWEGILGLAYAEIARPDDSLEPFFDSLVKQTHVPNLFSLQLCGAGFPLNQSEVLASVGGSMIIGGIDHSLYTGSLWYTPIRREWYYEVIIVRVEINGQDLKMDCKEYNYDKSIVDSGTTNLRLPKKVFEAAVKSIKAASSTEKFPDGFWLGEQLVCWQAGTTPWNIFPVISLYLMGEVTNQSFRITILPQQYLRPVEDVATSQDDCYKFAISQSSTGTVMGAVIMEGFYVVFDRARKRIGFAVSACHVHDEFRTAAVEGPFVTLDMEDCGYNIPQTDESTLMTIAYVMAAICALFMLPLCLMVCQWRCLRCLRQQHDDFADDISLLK

In this data set the target is BACE1 from M17-APPsw cell lysate (UniProt P56817). As to the kind of experiment: pull-down (streptavidin beads) + immunoblot. Particulars: protein in an extract, single-stranded DNA.

With “GCAATGGTACGGTACTTCCGTCATCAGCTTGTGATGTGGATGCGAACTGCAAAAGTGCACGCTACTTTGCTAA [A1]”, the binding result is reported as “binds”.

Source of the values: article PMC4608735.
